We go through three substances from patent US9045507B2 (UNIVERSITY OF SOUTHERN CALIFORNIA, priority 2005, dated 2015).

A short description of the data set: general procedure: Fmoc solid-phase peptide synthesis; Rink amide resin; HOBt/DIPCDI; PyBOP/HOBt for 10a. The conditions noted are these: whole synthesis.

HELM strings list residues between dots; [ac] is acetyl, [am] amide, other brackets name non-standard units.

Under “scale 7.4×10^−5 mol”, DADE-Y-GPAA-NH2 displayed an isolated yield of 33%.
As to DADE-pCAP-GPAA-NH2, the isolated yield (scale of the general procedure 100 mg resin, 7.4×10^−5 mol) is recorded as 20% yield.
In turn, “PEPTIDE1{D.A.D.E.[pTyr].G.P.A.A.[am]}$$$$V2.0” displayed an isolated yield (scale 7.4×10^−5 mol) of 48%.
